Data: the supplement of paper PMC10849652
The list shows a part of the results.

Chains of the proteins cited; added tags and fusions are not shown. Lines headed by an entry give the natural chain unless they say otherwise; changes in a name come on top.
UniProt Q969E2: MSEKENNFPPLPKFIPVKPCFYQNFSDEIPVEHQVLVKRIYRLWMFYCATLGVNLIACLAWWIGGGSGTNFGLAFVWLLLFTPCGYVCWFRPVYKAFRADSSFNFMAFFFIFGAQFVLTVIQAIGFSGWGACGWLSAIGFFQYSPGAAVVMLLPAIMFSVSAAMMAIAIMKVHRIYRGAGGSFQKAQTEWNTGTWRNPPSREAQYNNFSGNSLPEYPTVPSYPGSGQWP
UniProt Q9NRP4: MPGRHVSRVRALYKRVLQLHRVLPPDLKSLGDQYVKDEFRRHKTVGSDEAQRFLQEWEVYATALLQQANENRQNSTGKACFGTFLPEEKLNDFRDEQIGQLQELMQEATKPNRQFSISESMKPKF
UniProt Q14160: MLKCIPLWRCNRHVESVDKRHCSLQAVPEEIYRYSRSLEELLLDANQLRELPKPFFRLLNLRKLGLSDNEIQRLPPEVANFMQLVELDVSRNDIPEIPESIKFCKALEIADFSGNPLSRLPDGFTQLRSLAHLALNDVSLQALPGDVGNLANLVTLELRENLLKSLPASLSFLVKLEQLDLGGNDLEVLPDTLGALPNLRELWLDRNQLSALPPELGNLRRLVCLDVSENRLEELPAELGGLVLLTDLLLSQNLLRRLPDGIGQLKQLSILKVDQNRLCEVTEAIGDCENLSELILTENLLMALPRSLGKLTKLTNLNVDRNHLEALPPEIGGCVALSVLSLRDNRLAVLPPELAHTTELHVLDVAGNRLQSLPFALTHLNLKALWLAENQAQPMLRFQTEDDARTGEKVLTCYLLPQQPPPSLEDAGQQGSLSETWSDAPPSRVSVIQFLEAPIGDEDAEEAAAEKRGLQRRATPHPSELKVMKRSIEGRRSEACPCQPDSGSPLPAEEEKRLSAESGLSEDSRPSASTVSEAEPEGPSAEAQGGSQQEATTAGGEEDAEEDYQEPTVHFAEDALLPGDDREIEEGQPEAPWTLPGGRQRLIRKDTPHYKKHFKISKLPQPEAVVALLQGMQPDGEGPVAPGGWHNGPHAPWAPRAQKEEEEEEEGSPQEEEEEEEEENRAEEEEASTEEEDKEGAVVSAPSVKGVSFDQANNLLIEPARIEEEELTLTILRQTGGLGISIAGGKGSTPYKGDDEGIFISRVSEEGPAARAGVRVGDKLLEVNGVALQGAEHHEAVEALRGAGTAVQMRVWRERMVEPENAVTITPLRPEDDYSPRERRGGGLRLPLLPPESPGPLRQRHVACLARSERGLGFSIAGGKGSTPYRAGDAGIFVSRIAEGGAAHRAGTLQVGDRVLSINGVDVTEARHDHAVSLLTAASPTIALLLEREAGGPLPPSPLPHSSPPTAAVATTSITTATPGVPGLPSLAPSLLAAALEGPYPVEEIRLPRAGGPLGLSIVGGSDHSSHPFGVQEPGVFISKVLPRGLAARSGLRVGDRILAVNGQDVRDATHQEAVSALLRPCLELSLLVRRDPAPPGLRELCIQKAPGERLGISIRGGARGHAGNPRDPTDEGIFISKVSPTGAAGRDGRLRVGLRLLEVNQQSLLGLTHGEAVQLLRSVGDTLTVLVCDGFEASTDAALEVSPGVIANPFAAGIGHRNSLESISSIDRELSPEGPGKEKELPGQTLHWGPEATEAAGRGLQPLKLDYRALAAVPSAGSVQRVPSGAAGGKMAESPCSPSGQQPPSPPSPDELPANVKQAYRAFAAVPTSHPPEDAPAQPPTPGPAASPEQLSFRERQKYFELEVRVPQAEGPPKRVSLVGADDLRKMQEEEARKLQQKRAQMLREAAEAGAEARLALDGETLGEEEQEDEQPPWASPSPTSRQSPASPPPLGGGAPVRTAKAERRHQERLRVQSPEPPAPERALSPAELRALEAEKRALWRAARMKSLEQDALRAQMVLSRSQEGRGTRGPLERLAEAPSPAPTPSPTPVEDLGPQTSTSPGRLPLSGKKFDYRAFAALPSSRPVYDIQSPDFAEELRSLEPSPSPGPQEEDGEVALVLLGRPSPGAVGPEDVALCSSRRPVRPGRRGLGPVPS
UniProt Q9Y3A5: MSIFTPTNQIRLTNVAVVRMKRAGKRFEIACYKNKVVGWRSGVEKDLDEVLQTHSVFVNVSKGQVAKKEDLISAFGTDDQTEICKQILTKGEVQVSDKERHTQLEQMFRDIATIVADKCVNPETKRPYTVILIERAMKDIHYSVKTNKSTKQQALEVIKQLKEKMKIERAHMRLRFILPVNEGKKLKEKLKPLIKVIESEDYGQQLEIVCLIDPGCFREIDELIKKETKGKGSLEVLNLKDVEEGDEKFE
UniProt Q9Y6Y8: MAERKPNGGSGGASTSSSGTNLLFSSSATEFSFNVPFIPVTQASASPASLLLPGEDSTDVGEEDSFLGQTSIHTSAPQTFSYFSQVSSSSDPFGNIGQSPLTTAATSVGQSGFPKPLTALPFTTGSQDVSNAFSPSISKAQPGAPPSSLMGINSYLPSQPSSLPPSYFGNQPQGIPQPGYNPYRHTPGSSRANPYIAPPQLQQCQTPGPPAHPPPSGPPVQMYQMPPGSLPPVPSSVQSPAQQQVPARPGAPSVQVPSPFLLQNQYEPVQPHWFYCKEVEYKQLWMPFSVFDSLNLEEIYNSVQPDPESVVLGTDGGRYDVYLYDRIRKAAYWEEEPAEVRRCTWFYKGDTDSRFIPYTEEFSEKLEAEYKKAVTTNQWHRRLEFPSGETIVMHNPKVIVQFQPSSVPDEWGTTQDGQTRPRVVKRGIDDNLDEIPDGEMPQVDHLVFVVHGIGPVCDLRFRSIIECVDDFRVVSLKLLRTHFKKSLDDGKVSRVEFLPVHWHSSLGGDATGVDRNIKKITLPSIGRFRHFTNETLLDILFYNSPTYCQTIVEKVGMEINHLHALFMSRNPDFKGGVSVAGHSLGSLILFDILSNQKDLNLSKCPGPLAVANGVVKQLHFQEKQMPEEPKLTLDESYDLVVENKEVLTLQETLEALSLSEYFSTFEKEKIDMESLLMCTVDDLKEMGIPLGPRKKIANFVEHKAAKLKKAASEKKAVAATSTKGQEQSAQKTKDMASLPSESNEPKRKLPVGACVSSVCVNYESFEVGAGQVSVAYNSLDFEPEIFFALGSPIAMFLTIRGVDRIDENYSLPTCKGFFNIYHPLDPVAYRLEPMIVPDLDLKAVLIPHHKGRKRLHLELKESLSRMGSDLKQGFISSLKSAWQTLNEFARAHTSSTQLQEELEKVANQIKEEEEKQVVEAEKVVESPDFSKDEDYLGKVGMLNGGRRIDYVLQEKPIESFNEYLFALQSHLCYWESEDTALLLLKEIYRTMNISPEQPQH
UniProt Q92599: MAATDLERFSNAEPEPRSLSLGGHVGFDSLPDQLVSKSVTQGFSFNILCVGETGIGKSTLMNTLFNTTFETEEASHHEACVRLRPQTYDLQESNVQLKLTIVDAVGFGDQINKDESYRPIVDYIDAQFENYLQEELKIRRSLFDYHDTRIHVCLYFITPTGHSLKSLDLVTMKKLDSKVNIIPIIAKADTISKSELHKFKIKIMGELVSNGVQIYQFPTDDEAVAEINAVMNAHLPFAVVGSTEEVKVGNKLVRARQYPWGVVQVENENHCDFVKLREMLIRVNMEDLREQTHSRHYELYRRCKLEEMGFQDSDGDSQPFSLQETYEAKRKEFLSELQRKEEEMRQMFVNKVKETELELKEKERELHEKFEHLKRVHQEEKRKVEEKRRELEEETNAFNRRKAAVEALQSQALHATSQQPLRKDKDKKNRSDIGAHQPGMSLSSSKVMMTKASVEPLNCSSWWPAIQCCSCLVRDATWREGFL
UniProt Q96FV2: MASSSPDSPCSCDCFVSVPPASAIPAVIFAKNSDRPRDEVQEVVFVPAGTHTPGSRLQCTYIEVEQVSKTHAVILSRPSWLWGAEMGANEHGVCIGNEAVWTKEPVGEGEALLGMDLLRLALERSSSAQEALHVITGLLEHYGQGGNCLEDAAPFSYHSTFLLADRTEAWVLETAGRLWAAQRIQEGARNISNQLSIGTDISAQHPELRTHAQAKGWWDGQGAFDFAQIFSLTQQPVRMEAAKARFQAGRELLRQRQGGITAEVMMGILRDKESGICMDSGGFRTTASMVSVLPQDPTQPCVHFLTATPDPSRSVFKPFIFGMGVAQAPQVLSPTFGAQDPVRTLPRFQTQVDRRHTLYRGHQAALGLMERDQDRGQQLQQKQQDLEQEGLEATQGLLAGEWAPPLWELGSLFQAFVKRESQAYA
UniProt P49903: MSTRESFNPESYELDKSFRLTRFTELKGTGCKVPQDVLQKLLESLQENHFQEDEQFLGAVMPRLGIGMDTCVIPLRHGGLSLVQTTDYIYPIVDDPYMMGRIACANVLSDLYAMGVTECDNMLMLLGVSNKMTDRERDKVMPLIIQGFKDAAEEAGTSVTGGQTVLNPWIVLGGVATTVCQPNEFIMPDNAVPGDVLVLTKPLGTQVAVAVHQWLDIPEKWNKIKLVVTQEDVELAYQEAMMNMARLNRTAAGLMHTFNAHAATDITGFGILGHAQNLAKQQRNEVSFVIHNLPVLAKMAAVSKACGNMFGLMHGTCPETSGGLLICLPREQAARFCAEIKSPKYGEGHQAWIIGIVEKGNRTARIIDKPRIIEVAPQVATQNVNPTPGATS
UniProt Q96GA7: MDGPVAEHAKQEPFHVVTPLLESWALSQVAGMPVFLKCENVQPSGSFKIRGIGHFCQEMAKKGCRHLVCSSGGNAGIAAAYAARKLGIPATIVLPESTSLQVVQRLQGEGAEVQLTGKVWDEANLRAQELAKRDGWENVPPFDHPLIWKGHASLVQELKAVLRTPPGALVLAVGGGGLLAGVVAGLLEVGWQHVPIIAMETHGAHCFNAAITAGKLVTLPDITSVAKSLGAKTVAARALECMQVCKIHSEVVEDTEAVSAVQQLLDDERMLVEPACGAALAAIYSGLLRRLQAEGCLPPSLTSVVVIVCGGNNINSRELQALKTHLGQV
UniProt Q8NBX0: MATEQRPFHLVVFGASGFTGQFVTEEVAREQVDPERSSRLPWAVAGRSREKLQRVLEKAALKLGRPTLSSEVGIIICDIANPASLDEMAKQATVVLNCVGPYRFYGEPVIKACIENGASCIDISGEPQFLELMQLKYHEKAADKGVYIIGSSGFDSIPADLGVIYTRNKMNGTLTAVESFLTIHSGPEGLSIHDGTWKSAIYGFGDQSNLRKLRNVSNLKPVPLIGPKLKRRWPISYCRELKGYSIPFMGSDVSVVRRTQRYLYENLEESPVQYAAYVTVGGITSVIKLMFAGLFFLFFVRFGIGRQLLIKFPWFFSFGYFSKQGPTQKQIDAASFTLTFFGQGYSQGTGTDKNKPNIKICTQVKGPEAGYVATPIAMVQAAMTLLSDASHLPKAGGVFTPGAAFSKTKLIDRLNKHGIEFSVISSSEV
UniProt Q14151: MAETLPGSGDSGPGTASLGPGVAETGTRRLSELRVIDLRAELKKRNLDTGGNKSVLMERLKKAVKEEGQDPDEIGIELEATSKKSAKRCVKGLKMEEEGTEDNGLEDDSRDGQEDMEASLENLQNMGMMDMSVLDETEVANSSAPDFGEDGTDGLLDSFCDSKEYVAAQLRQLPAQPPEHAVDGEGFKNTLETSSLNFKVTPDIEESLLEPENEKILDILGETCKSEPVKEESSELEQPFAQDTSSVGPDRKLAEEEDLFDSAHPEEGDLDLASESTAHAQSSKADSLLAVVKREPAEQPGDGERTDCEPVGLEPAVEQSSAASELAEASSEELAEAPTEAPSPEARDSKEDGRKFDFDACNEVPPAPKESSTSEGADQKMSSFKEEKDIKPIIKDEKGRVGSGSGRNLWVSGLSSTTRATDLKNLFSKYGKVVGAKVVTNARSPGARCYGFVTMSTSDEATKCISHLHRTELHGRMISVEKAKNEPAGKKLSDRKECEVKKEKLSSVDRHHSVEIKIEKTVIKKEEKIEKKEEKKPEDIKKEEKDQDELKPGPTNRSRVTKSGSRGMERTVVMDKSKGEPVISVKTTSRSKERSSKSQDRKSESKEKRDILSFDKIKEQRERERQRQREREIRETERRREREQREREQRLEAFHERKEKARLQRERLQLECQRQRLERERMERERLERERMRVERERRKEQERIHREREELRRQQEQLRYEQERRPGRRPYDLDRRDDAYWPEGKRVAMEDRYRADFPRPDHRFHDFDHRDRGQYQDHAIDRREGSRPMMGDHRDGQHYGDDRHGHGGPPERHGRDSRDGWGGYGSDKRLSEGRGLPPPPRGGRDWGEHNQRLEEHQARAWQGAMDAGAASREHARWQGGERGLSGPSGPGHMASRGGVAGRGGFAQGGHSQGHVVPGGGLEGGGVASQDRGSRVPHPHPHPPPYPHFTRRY

How the values were obtained:
Assay in all cases: log2 fold change, soluble protein after heating vs DMSO (PISA); higher = thermal stabilisation; K562 lysate, 10 uM; active = over 0.2 and 3.5 SD of the protein, either way, in both replicates (recomputed)
lapatinib = compound: CS(=O)(=O)CCNCc1ccc(-c2ccc3ncnc(Nc4ccc(OCc5cccc(F)c5)c(Cl)c4)c3c2)o1 [lapatinib]
Summary of the method: (§1)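 Values give the log-two fold change in thermal stability against solvent controls, from duplicates. Crude K562 extract at 1 mg/mL protein, made by dounce homogenisation in PBS pH 7.4 with 1 mM MgCl2, was treated with 10 μM compound for 30 min. After 3 min heating across 48°C-58°C, aliquots were pooled, adjusted to 0.5% NP-40 at 4°C and centrifuged at 21,000xg for 90 min. The supernatant was measured by TMTpro 16plex LC-MS/MS with channel sums equalised.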

pictilisib = compound: CS(=O)(=O)N1CCN(Cc2cc3nc(-c4cccc5[nH]ncc45)nc(N4CCOCC4)c3s2)CC1 [pictilisib]
Summary of the method: as §1

crizotinib = compound: C[C@@H](Oc1cc(-c2cnn(C3CCNCC3)c2)cnc1N)c1c(Cl)ccc(F)c1Cl [crizotinib]
Summary of the method: as §1

[1] = compound: C[C@H](C1=CC=C(C=C1)C(=O)NC2=C3C=CNC3=NC=C2)N
Summary of the method: as §1

duvelisib = compound: C[C@H](Nc1ncnc2nc[nH]c12)c1cc2cccc(Cl)c2c(=O)n1-c1ccccc1 [duvelisib]
Summary of the method: as §1

gandotinib = compound: Cc1cc(Nc2cc(CN3CCOCC3)c3nc(C)c(Cc4ccc(Cl)cc4F)n3n2)n[nH]1 [gandotinib]
Summary of the method: as §1

tozasertib = compound: Cc1cc(Nc2cc(N3CCN(C)CC3)nc(Sc3ccc(NC(=O)C4CC4)cc3)n2)n[nH]1 [tozasertib]
Summary of the method: as §1

doramapimod = compound: Cc1ccc(-n2nc(C(C)(C)C)cc2NC(=O)Nc2ccc(OCCN3CCOCC3)c3ccccc23)cc1 [doramapimod]
Summary of the method: as §1

bafetinib = compound: Cc1ccc(NC(=O)c2ccc(CN3CC[C@H](N(C)C)C3)c(C(F)(F)F)c2)cc1Nc1nccc(-c2cncnc2)n1 [bafetinib]
Summary of the method: as §1

[2] = compound: Cc1cccc(CC(=O)N2CCc3c2ccc(-c2cn(C)c4ncnc(N)c24)c3F)n1
Summary of the method: as §1

nilotinib = compound: Cc1cn(-c2cc(NC(=O)c3ccc(C)c(Nc4nccc(-c5cccnc5)n4)c3)cc(C(F)(F)F)c2)cn1 [nilotinib]
Summary of the method: as §1

[3] = compound: Cc1nc(Nc2n[nH]c3c2CN(C(=O)N[C@H](CN(C)C)c2ccccc2)C3(C)C)c2sccc2n1
Summary of the method: as §1

dasatinib = compound: Cc1nc(Nc2ncc(C(=O)Nc3c(C)cccc3Cl)s2)cc(N2CCN(CCO)CC2)n1 [dasatinib]
Summary of the method: as §1

[4] = compound: Cc1ncc(-c2ccnc(Nc3ccc(S(C)(=O)=O)cc3)n2)n1C(C)C
Summary of the method: as §1

[5] = compound: Cn1cc(-c2ccc3c(c2)CCN3C(=O)Cc2cccc(C(F)(F)F)c2)c2c(N)ncnc21
Summary of the method: as §1

quisinostat = compound: Cn1cc(CNCC2CCN(c3ncc(C(=O)NO)cn3)CC2)c2ccccc21 [quisinostat]
Summary of the method: as §1

tipifarnib = compound: Cn1cncc1[C@@](N)(c1ccc(Cl)cc1)c1ccc2c(c1)c(-c1cccc(Cl)c1)cc(=O)n2C [tipifarnib]
Summary of the method: as §1

[6] = compound: NC(=O)Nc1cc(-c2cccc(F)c2)sc1C(=O)N[C@H]1CCCNC1
Summary of the method: as §1

[7] = compound: NC(=O)c1cnc(N[C@@H]2CCCC[C@@H]2N)nc1Nc1cccc(-n2nccn2)c1
Summary of the method: as §1

[8] = compound: NC1(c2ccc(-c3nc4ccn5c(=O)[nH]nc5c4cc3-c3ccccc3)cc2)CCC1
Summary of the method: as §1

Target	log2 fold change (lapatinib)	log2 fold change (pictilisib)	log2 fold change (crizotinib)	log2 fold change [1]	log2 fold change (duvelisib)	log2 fold change (gandotinib)	log2 fold change (tozasertib)	log2 fold change (doramapimod)	log2 fold change (bafetinib)	log2 fold change [2]	log2 fold change (nilotinib)	log2 fold change [3]	log2 fold change (dasatinib)	log2 fold change [4]	log2 fold change [5]	log2 fold change (quisinostat)	log2 fold change (tipifarnib)	log2 fold change [6]	log2 fold change [7]	log2 fold change [8]
SCAMP4 (UniProt Q969E2)	inactive: -0.002	inactive: -0.041	inactive: 0.024	inactive: 0.036	inactive: 0.021	inactive: -0.032	inactive: -0.058	inactive: -0.056	inactive: -0.028	inactive: -0.028	inactive: 0.033	inactive: -0.003	inactive: 0.021	inactive: -0.053	inactive: -0.057	inactive: 0.08	inactive: -0.044	inactive: -0.037	inactive: -0.034	inactive: 0
SEC61A2 (UniProt Q9H9S3)	inactive: -0.067	inactive: -0.005	inactive: -0.008	inactive: -0.181	inactive: -0.038	inactive: 0.053	inactive: -0.024	inactive: 0	inactive: -0.037	inactive: 0.061	inactive: -0.012	inactive: 0.042	inactive: 0.009	inactive: -0.028	inactive: -0.007	inactive: -0.127	inactive: -0.087	inactive: -0.003	inactive: 0.013	inactive: 0.06
SDHAF3 (UniProt Q9NRP4)	inactive: -0.008	inactive: -0.011	inactive: -0.014	inactive: -0.087	inactive: 0.021	inactive: 0.013	inactive: 0.027	inactive: 0.062	inactive: -0.064	inactive: -0.023	inactive: 0.015	inactive: 0.018	inactive: -0.05	inactive: 0.033	inactive: 0.093	inactive: -0.015	inactive: -0.042	inactive: 0.033	inactive: 0.009	inactive: 0.121
SCRIB (UniProt Q14160)	inactive: -0.024	inactive: -0.028	inactive: -0.05	inactive: 0.048	inactive: 0.007	inactive: 0.044	inactive: 0.02	inactive: 0.02	inactive: -0.025	inactive: 0.016	inactive: -0.018	inactive: 0.014	inactive: -0.02	inactive: -0.013	inactive: 0.004	inactive: -0.061	inactive: -0.051	inactive: 0.069	inactive: 0.01	inactive: 0.008
SBDS (UniProt Q9Y3A5)	inactive: -0.01	inactive: 0.01	inactive: 0.012	inactive: -0.063	inactive: -0.013	inactive: 0.032	inactive: -0.006	inactive: 0	inactive: -0.018	inactive: 0.036	inactive: 0.005	inactive: 0.014	inactive: -0.013	inactive: 0.038	inactive: -0.009	inactive: -0.032	inactive: 0.007	inactive: -0.016	inactive: -0.013	inactive: -0.003
SEC23IP (UniProt Q9Y6Y8)	inactive: -0.004	inactive: -0.017	inactive: -0.067	inactive: 0.036	inactive: -0.011	inactive: -0.105	inactive: -0.01	inactive: 0.024	inactive: -0.013	inactive: -0.018	inactive: -0.025	inactive: -0.016	inactive: 0.027	inactive: 0.013	inactive: -0.002	inactive: -0.072	inactive: -0.006	inactive: 0.039	inactive: 0.012	inactive: 0.03
SEPTIN8 (UniProt Q92599)	inactive: -0.012	inactive: 0	inactive: 0.054	inactive: 0.027	inactive: -0.013	inactive: -0.005	inactive: 0.007	inactive: 0.008	inactive: 0.004	inactive: -0.049	inactive: 0.008	inactive: -0.031	inactive: 0	inactive: 0.004	inactive: 0.01	inactive: 0.036	inactive: 0.025	inactive: -0.033	inactive: -0.007	inactive: 0.007
SACM1L (UniProt Q9NTJ5)	inactive: -0.066	inactive: -0.028	inactive: -0.124	inactive: -0.024	inactive: -0.016	inactive: -0.145	inactive: 0.01	inactive: 0.026	inactive: -0.077	inactive: 0.095	inactive: -0.006	inactive: 0	inactive: -0.065	inactive: 0.006	inactive: 0.045	inactive: -0.011	inactive: -0.073	inactive: 0.013	inactive: 0.024	inactive: 0.003
SCRN2 (UniProt Q96FV2)	inactive: 0.037	inactive: 0.013	inactive: 0.011	inactive: -0.062	inactive: 0.008	inactive: -0.121	inactive: -0.038	inactive: -0.059	inactive: 0.024	inactive: 0.084	inactive: -0.138	inactive: 0.068	inactive: -0.052	inactive: -0.095	inactive: 0.061	inactive: -0.067	inactive: -0.1	inactive: 0.001	inactive: -0.021	inactive: 0.001
SEPHS1 (UniProt P49903)	inactive: -0.01	inactive: -0.015	inactive: 0.017	inactive: 0.009	inactive: 0.012	inactive: 0.009	inactive: 0.004	inactive: -0.015	inactive: 0.032	inactive: -0.042	inactive: 0.043	inactive: -0.012	inactive: 0.028	inactive: -0.001	inactive: -0.008	inactive: 0.032	inactive: 0.023	inactive: -0.005	inactive: -0.026	inactive: 0.003
SDSL (UniProt Q96GA7)	inactive: -0.02	inactive: 0.005	inactive: -0.024	inactive: -0.098	inactive: 0.034	inactive: 0.055	inactive: 0.015	inactive: 0.094	inactive: -0.008	inactive: 0.034	inactive: 0.054	inactive: 0.009	inactive: 0.024	inactive: -0.021	inactive: -0.02	inactive: 0.077	inactive: -0.021	inactive: -0.022	inactive: -0.029	inactive: 0.027
SCCPDH (UniProt Q8NBX0)	inactive: 0.108	inactive: 0.006	inactive: 0.394	inactive: -0.179	inactive: 0.195	active: 0.869	inactive: -0.052	inactive: -0.102	inactive: -0.015	inactive: 0.034	inactive: 0.12	inactive: -0.002	inactive: 0.058	inactive: 0.151	inactive: -0.019	inactive: -0.058	inactive: 0.049	inactive: -0.217	inactive: -0.081	inactive: 0.022
SCYL1 (UniProt Q96KG9)	inactive: 0.054	inactive: 0.007	inactive: 0.016	inactive: -0.007	inactive: -0.021	inactive: 0.069	inactive: 0.012	inactive: 0.128	inactive: -0.018	inactive: 0.011	inactive: 0.041	inactive: 0.006	inactive: 0.012	inactive: 0.019	inactive: 0.001	inactive: -0.006	inactive: -0.036	inactive: -0.004	inactive: 0.002	inactive: 0.008
SAFB2 (UniProt Q14151)	inactive: -0.019	inactive: -0.009	inactive: 0.012	inactive: -0.069	inactive: 0.008	inactive: 0.018	inactive: 0.016	inactive: -0.016	inactive: 0.039	inactive: 0.039	inactive: -0.057	inactive: 0.004	inactive: 0.043	inactive: -0.033	inactive: 0.049	inactive: -0.032	inactive: -0.025	inactive: 0.01	inactive: -0.009	inactive: 0.037
SEPSECS (UniProt Q9HD40)	inactive: -0.004	inactive: 0	inactive: 0.013	inactive: -0.051	inactive: 0.029	inactive: 0.022	inactive: -0.016	inactive: -0.017	inactive: -0.011	inactive: 0.018	inactive: 0.029	inactive: 0.008	inactive: 0.01	inactive: 0.024	inactive: 0.024	inactive: 0.015	inactive: -0.039	inactive: -0.012	inactive: 0.012	inactive: -0.014
SEMA4C (UniProt Q9C0C4)	inactive: 0.001	inactive: -0.113	inactive: 0.08	inactive: -0.003	inactive: 0.012	inactive: -0.02	inactive: 0.016	inactive: 0.047	inactive: 0.02	inactive: 0.022	inactive: -0.011	inactive: -0.021	inactive: 0.019	inactive: -0.041	inactive: 0.022	inactive: 0.069	inactive: 0.003	inactive: -0.039	inactive: 0.009	inactive: 0.033

2 records picked at random from the list so far:
Target	log2 fold change (lapatinib)	log2 fold change (pictilisib)	log2 fold change (crizotinib)	log2 fold change [1]	log2 fold change (duvelisib)	log2 fold change (gandotinib)	log2 fold change (tozasertib)	log2 fold change (doramapimod)	log2 fold change (bafetinib)	log2 fold change [2]	log2 fold change (nilotinib)	log2 fold change [3]	log2 fold change (dasatinib)	log2 fold change [4]	log2 fold change [5]	log2 fold change (quisinostat)	log2 fold change (tipifarnib)	log2 fold change [6]	log2 fold change [7]	log2 fold change [8]
SCRIB (UniProt Q14160)	inactive: -0.024	inactive: -0.028	inactive: -0.05	inactive: 0.048	inactive: 0.007	inactive: 0.044	inactive: 0.02	inactive: 0.02	inactive: -0.025	inactive: 0.016	inactive: -0.018	inactive: 0.014	inactive: -0.02	inactive: -0.013	inactive: 0.004	inactive: -0.061	inactive: -0.051	inactive: 0.069	inactive: 0.01	inactive: 0.008
SEPTIN8 (UniProt Q92599)	inactive: -0.012	inactive: 0	inactive: 0.054	inactive: 0.027	inactive: -0.013	inactive: -0.005	inactive: 0.007	inactive: 0.008	inactive: 0.004	inactive: -0.049	inactive: 0.008	inactive: -0.031	inactive: 0	inactive: 0.004	inactive: 0.01	inactive: 0.036	inactive: 0.025	inactive: -0.033	inactive: -0.007	inactive: 0.007
